We go through two molecules from PMC3063170.

These are yes or no findings as the source states them, for the method shown. In cells and extracts the contact can be indirect. Binding can be weak; no strength is given. For part of these data: Where a sequence is shown, tags or fusion partners need not be part of it.

In assay [1] the target is T1, MISC-1 (Mitochondrial Solute Carrier) (C. elegans (endogenous in N2)) (UniProt P90992).
T1 sequence: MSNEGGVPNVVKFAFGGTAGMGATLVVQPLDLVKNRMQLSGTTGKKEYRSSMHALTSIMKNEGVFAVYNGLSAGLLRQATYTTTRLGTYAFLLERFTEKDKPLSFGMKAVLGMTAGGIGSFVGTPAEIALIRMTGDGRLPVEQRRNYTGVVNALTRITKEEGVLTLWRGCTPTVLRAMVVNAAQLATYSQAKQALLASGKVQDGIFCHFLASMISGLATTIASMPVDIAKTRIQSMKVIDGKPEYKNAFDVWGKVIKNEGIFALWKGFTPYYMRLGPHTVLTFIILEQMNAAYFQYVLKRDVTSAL
Nature of the assay: co-IP; lysates of mixed stage C. elegans (wild type N2 and the MISC-1::GFP transgenic line) in co-immunoprecipitation buffer, several combinations of antibodies, protocol as for mammalian cells, Western blot. On the technique in general: A western blot detects proteins with antibodies after separation by electrophoresis.

The target in a further assay is T2, MISC-1::GFP (C. elegans) (UniProt P90992).
T2 sequence: T1 sequence
The assay is described as above.

For assay [2], the target named is Adenine Nucleotide Translocase (ANT) (human (endogenous in HEK293)). Nature of the assay: co-IP; antibody against ANT added to sonicated HEK293 lysate (25 mM TRIS pH 7.4, 100 mM NaCl, 1 mM EDTA, 0.5% NP-40, 1% sodium deoxycholate), overnight at 4°C, protein G-sepharose, Western blot.

Consider ANT (C. elegans), for which the binding result (in assay [1]; in the assay with MISC-1::GFP (C. elegans)) was “binds” in each case.

B1: 2-oxoglutarate carrier (OGC) (protein, UniProt Q02978 1-314)
chain: MAATASAGAGGIDGKPRTSPKSVKFLFGGLAGMGATVFVQPLDLVKNRMQLSGEGAKTREYKTSFHALTSILKAEGLRGIYTGLSAGLLRQATYTTTRLGIYTVLFERLTGADGTPPGFLLKAVIGMTAGATGAFVGTPAEVALIRMTADGRLPADQRRGYKNVFNALIRITREEGVLTLWRGCIPTMARAVVVNAAQLASYSQSKQFLLDSGYFSDNILCHFCASMISGLVTTAASMPVDIAKTRIQNMRMIDGKPEYKNGLDVLFKVVRYEGFFSLWKGFTPYYARLGPHTVLTFIFLEQMNKAYKRLFLSG
With B1, the binding result in assay [2] is reported as “binds”.
